Test results from the supplement of paper PMC12819154, “High-throughput peptide-centric local stability assay extends protein–ligand identification to membrane proteins, tissues and bacteria” (Nature Structural & Molecular Biology, 2025).
The other results are listed elsewhere or left out. Most entries show no effect beyond the scatter of the controls.

By UniProt entry, the sequences of proteins in these tests, tags left out. Where a name states a change or a piece, a line headed by the entry shows the natural chain unless it says otherwise.
UniProt O95415: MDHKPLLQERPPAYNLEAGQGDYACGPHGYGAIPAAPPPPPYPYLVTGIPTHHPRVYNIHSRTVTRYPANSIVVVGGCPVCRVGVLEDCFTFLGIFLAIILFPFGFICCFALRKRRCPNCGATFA
UniProt O95625: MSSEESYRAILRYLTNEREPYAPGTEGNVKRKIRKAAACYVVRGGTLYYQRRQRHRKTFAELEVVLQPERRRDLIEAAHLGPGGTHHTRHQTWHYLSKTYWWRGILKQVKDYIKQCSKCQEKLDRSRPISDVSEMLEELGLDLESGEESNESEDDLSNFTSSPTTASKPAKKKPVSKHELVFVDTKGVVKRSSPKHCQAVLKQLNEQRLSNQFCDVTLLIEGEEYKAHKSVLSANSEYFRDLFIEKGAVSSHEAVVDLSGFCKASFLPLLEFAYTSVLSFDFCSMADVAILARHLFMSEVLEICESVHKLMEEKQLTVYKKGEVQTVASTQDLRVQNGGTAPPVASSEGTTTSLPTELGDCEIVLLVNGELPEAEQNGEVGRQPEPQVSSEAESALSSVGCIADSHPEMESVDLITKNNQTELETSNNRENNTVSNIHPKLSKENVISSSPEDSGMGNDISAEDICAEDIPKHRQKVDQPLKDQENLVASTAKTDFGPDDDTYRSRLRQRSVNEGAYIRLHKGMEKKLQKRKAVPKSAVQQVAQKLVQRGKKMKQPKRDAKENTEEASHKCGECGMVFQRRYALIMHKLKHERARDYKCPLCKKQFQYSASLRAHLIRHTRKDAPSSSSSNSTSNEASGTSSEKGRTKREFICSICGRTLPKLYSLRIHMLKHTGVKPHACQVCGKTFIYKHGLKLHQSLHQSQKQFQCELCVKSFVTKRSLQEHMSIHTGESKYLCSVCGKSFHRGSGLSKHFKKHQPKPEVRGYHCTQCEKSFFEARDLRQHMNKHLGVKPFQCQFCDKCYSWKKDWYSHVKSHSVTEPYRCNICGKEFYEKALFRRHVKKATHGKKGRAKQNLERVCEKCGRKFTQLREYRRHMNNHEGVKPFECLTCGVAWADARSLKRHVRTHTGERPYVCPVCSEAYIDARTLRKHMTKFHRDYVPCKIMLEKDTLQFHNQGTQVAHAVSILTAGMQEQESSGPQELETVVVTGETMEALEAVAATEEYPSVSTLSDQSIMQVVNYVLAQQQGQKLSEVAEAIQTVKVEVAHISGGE
UniProt O95757: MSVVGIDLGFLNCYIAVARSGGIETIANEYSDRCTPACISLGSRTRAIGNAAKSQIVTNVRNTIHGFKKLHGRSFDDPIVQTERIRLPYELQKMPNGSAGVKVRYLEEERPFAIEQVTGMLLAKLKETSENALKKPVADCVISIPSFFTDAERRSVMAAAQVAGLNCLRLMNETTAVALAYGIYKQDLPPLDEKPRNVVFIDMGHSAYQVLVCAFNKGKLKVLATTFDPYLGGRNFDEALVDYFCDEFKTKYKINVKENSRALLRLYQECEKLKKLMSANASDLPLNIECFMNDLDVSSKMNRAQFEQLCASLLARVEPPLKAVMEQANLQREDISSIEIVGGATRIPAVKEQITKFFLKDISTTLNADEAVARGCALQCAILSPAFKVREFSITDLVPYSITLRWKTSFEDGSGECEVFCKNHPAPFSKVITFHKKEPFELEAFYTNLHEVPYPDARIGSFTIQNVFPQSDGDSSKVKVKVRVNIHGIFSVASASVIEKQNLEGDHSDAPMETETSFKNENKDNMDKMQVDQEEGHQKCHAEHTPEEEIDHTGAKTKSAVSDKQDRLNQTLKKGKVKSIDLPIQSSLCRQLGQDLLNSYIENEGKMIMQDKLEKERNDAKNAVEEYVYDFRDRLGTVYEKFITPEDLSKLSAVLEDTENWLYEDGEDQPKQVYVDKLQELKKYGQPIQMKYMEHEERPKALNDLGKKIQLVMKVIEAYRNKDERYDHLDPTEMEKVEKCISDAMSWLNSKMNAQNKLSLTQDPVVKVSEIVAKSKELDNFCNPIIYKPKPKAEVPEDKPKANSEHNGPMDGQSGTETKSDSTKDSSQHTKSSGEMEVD
UniProt O95319: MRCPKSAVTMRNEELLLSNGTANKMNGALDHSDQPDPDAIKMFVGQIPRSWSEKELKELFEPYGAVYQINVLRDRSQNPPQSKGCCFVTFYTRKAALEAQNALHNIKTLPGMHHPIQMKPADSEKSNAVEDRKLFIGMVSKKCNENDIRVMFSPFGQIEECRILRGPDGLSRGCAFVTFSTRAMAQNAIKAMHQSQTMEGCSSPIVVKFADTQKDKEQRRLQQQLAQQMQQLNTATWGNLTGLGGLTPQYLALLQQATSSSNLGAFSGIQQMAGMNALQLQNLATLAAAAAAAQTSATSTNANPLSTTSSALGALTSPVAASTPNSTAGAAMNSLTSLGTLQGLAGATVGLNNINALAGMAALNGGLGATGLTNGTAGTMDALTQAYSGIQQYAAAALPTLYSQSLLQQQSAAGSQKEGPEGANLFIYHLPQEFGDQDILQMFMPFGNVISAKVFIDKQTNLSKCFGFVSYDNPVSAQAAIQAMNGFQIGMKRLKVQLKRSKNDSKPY
UniProt O95865: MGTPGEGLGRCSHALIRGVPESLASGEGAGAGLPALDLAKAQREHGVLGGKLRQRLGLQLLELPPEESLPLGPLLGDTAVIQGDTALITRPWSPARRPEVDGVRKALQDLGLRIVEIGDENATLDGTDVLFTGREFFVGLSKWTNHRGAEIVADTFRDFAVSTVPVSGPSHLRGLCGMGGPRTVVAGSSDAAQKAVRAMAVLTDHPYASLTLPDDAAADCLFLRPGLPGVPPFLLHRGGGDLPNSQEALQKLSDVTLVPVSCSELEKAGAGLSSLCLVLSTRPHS
UniProt O95644: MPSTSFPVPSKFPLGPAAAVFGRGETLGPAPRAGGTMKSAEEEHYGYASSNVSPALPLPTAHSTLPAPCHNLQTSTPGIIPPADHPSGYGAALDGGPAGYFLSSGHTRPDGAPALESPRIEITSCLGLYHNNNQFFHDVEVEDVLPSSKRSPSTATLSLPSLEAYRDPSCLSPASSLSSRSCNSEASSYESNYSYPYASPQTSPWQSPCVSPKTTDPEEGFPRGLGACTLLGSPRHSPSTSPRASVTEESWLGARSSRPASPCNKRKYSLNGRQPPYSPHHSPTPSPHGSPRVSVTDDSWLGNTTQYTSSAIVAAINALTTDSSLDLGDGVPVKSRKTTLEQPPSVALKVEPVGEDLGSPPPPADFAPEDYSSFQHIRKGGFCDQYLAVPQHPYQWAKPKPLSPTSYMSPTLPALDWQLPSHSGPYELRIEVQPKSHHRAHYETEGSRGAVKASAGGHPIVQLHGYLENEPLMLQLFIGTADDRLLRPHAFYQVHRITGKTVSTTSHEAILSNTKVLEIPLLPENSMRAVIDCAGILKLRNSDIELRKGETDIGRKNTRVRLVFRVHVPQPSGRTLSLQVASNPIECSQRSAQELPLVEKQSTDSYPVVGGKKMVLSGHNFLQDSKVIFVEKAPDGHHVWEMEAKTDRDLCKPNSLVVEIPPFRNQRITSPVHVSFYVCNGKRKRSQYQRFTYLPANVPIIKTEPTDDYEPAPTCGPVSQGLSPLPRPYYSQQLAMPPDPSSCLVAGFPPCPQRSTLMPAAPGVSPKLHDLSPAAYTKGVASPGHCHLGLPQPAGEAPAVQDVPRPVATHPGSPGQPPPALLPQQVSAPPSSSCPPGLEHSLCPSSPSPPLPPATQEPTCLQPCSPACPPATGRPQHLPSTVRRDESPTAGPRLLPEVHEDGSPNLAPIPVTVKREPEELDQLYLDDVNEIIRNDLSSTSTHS
UniProt O75843: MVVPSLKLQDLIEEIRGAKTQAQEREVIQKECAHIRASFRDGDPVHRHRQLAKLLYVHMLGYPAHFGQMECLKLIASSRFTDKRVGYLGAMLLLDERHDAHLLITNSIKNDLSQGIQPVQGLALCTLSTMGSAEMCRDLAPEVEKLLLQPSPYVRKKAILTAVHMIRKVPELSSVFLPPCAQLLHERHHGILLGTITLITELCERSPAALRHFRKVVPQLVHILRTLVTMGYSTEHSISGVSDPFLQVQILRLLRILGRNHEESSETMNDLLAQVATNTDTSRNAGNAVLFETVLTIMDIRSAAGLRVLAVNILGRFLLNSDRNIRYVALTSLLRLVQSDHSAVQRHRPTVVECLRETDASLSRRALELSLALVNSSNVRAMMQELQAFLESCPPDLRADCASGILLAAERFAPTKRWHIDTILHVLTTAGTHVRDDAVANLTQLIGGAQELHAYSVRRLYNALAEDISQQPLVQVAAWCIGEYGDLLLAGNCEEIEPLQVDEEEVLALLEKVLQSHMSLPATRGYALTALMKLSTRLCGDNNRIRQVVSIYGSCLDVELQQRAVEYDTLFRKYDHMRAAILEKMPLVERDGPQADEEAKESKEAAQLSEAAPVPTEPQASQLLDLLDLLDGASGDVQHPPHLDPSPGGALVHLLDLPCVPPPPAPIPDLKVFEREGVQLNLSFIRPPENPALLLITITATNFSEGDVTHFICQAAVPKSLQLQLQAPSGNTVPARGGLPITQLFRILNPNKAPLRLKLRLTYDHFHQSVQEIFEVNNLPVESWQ
UniProt O75446: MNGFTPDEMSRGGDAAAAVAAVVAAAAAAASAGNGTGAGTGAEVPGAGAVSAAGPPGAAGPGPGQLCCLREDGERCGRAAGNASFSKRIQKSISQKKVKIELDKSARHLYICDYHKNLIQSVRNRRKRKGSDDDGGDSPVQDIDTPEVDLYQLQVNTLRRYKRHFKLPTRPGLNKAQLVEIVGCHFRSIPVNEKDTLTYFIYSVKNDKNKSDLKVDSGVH
UniProt O76041: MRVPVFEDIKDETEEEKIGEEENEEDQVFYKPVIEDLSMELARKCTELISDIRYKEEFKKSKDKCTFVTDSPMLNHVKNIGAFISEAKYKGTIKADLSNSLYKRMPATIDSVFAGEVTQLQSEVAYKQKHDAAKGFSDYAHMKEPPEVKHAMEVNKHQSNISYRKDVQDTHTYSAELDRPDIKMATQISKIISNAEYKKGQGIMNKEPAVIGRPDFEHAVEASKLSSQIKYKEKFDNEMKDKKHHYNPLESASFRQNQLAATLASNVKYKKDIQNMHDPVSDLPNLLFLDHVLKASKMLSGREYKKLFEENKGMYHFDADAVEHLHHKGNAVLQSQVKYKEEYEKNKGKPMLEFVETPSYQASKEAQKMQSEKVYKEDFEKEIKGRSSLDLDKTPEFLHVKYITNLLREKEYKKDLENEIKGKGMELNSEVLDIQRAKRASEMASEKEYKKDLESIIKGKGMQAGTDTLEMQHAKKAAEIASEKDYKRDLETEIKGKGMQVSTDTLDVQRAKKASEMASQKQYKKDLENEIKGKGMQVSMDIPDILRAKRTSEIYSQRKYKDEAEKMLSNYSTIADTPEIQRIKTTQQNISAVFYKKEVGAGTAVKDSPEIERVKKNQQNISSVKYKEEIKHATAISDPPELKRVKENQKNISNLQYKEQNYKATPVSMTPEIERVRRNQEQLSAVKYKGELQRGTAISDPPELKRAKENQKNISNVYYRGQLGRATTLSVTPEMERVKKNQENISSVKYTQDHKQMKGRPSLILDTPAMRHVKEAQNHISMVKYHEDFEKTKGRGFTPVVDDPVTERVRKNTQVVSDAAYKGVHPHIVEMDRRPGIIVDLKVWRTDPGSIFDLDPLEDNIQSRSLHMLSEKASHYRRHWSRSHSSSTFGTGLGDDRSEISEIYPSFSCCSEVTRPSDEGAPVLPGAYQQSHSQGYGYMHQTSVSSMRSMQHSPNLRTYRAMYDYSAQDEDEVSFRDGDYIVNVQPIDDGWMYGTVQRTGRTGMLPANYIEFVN
UniProt O75865, whole entry: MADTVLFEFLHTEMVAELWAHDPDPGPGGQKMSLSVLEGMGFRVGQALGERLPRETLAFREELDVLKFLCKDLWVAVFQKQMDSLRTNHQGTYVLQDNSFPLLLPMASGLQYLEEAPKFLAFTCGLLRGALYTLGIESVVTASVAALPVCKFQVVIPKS
UniProt O95251, whole entry: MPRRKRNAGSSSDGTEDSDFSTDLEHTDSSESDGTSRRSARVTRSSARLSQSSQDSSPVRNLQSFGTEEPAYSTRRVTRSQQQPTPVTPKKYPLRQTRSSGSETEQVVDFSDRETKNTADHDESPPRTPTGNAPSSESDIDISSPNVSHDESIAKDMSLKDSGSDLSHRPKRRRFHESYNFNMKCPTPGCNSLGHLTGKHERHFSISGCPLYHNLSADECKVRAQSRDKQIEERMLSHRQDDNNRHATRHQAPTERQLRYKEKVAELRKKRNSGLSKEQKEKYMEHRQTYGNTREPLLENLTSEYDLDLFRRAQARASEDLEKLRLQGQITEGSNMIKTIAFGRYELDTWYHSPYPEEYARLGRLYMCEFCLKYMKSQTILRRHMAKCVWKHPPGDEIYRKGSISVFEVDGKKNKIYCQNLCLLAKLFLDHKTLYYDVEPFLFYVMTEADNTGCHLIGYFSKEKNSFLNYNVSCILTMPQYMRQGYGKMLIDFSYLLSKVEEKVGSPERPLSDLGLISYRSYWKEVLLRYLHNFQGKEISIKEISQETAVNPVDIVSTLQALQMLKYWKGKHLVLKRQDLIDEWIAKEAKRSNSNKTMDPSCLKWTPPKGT

These targets were tested with CN[C@@H]1C[C@H]2O[C@@](C)([C@@H]1OC)n1c3ccccc3c3c4c(c5c6ccccc6n2c5c31)C(=O)NC4 [staurosporine] (assay: log2 fold change of tryptic peptide abundance, ligand vs vehicle (limited proteolysis) (log2 ratio); higher = more trypsin-susceptible (destabilized)). Conditions: ligand concentration: 20 uM; sample: K562 cleared lysate; digestion: 4 min, 22 C (HT-PELSA RT4min, Orbitrap Astral).

Target	log2 fold change
BRI3 (peptide sequence: VYNIHSR, peptide start residue: 56) (UniProt O95415)	-0.284
UniProt O75771 (peptide sequence: LLQLLQAK, peptide start residue: 146)	0.16
UniProt O75396 (peptide sequence: KVPTVSRPYSFIEFDTFIQK, peptide start residue: 102)	0.2
ZBTB11 (peptide sequence: DLIEAAHLGPGGTHHTR, peptide start residue: 73) (UniProt O95625)	0.376
PAPSS2 (peptide sequence: RGQVVGTR, peptide start residue: 40) (UniProt O95340)	-0.173
HSPA4L (peptide sequence: QVYVDKLQELK, peptide start residue: 672) (UniProt O95757)	0.346
ZMPSTE24 (peptide sequence: NEEEGNSEEIKAK, peptide start residue: 304) (UniProt O75844)	-0.794
NME6 (peptide sequence: LVEFMASGPIR, peptide start residue: 72) (UniProt O75414)	0.567
UniProt O94892 (peptide sequence: ICPENNEVDDHLQDHLENQR, peptide start residue: 77)	0.525
UniProt O95319 (peptide sequence: MFVGQIPR, peptide start residue: 42)	0.239
DDAH2 (peptide sequence: EFFVGLSK, peptide start residue: 135) (UniProt O95865)	-0.18
NFATC1 (peptide sequence: HSPSTSPR, peptide start residue: 236) (UniProt O95644)	-0.376
UniProt O95670 (peptide sequence: ASQSQGIQQLLQAEKR, peptide start residue: 2)	-0.0363
ARL6IP5 (peptide sequence: AWDDFFPGSDR, peptide start residue: 10) (UniProt O75915)	0.128
AP1G2 (peptide sequence: AILTAVHMIR, peptide start residue: 158) (UniProt O75843)	0.376
SAP30 (peptide sequence: AQLVEIVGCHFR, peptide start residue: 176) (UniProt O75446)	-0.222
NEBL (peptide sequence: NTQVVSDAAYK, peptide start residue: 812) (UniProt O76041)	-0.167
RHOBTB3 (peptide sequence: YNVNDKFSFHEVK, peptide start residue: 100) (UniProt O94955)	0.569
ACSL3 (peptide sequence: THYQADIER, peptide start residue: 707) (UniProt O95573)	0.258
HSBP1 (peptide sequence: FQTMSDQIIGR, peptide start residue: 27) (UniProt O75506)	-0.0218
SEC24A (peptide sequence: AKLPLGLLLHPFK, peptide start residue: 403) (UniProt O95486)	-1.19
RAD17 (peptide sequence: DSHTLHEVLRK, peptide start residue: 235) (UniProt O75943)	0.581
TRAPPC6A (peptide sequence: FLAFTCGLLR, peptide start residue: 119) (UniProt O75865)	-0.128
UniProt O95251 (peptide sequence: CPTPGCNSLGHLTGK, peptide start residue: 185)	0.354
UniProt O95551 (peptide sequence: ALNSYFEPPVEESALER, peptide start residue: 57)	-0.2
OFD1 (peptide sequence: QSNLQEVLER, peptide start residue: 898) (UniProt O75665)	-0.19
PALM (peptide sequence: ENAAAPSPVR, peptide start residue: 110) (UniProt O75781)	-0.634
PIAS2 (peptide sequence: SGCSPAVQIK, peptide start residue: 47) (UniProt O75928)	-0.32
UniProt O95503 (peptide sequence: ISDVHFSVKPSASASSPK, peptide start residue: 92)	-0.644

At a glance, part of the list above:
Target	log2 fold change
UniProt O95551 (peptide sequence: ALNSYFEPPVEESALER, peptide start residue: 57)	-0.2
OFD1 (peptide sequence: QSNLQEVLER, peptide start residue: 898) (UniProt O75665)	-0.19
